Assay results published in patent publication US4968669A, “Parathyroid hormone antagonists” (Merck & Co., Inc., priority 1989, dated 1990).

Assays:
[1] = target: T1, I^125 -labeled PTH binding to rat osteosarcoma cell line ROS 17/2.8 (Rattus norvegicus, UniProt P25961); assay: PTH binding assay, ROS 17/2.8 cells
T1 construct: bone-derived rat osteosarcoma cell line ROS 17/2.8; endogenous in cells; host or cells: ROS 17/2.8 rat osteosarcoma cells
T1 sequence (P25961 27-591): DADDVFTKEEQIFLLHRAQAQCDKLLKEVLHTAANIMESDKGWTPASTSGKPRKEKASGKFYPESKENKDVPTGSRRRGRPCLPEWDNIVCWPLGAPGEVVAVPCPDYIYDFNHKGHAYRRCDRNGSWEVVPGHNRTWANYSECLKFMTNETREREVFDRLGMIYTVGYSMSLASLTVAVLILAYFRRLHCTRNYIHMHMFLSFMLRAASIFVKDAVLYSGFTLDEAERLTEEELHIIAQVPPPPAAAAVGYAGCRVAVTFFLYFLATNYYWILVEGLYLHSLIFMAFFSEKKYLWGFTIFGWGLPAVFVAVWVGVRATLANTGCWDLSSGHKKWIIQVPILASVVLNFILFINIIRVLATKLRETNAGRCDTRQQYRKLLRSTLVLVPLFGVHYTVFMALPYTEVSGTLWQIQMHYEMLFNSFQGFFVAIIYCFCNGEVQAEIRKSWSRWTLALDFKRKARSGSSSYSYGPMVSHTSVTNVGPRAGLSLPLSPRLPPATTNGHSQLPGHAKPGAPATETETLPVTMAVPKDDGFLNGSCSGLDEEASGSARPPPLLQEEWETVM

[2] = target: T2, PTH receptor in bovine renal cortical plasma membranes (Bos taurus, UniProt Q1LZF7); assay: PTH binding assay, bovine renal cortical plasma membranes, radioligand [Nle8,18,125I-Tyr34]bPTH(1-34)NH2; conditions: 30 min at 21° C
T2 construct: from tissue; host or cells: bovine renal cortex, plasma membranes
T2 sequence (Q1LZF7 29-589): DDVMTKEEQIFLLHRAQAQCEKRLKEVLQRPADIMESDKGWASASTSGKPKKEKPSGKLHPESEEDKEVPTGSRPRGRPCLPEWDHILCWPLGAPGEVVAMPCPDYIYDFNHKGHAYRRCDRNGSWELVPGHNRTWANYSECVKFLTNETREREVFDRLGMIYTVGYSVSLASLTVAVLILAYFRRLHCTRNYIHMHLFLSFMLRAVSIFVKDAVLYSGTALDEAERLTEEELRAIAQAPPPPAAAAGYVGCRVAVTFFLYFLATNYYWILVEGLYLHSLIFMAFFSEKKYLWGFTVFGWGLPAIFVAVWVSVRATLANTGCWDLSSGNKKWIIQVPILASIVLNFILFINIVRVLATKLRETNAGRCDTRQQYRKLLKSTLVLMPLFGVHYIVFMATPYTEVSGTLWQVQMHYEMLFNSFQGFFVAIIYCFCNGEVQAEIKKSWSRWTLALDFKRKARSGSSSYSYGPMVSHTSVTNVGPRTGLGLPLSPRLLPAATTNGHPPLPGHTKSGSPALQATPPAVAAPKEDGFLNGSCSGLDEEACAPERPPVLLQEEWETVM
Description: Bovine renal cortical plasma membranes were incubated with radioligand (25,000 cpm) in the absence or presence of PTH analogues in a Tris containing buffer (250 μl) for 30 min. at 21° C. Once equilibrium was reached, bound and free radioligand were separated by centrifugation.

CCCC[C@H](NC(=O)[C@H](CO)NC(=O)[C@H](CO)NC(=O)[C@H](CC(C)C)NC(=O)[C@H](Cc1c[nH]cn1)NC(=O)[C@H](CCCCN)NC(=O)[C@@H](Cc1c[nH]c2ccccc12)NC(=O)[C@H](CC(C)C)NC(=O)[C@H](CC(N)=O)NC(=O)[C@H](Cc1c[nH]cn1)NC(=O)[C@H](CCCC)NC(=O)[C@@H](N)Cc1ccccc1)C(=O)N[C@@H](CCC(=O)O)C(=O)N[C@@H](CCCNC(=N)N)C(=O)N[C@H](C(=O)N[C@@H](CCC(=O)O)C(=O)N[C@@H](Cc1c[nH]c2ccccc12)C(=O)N[C@@H](CC(C)C)C(=O)N[C@@H](CCCNC(=N)N)C(=O)N[C@@H](CCCCN)C(=O)N[C@@H](CCCCN)C(=O)N[C@@H](CC(C)C)C(=O)N[C@@H](CCC(N)=O)C(=O)N[C@@H](CC(=O)O)C(=O)N[C@H](C(=O)N[C@@H](Cc1c[nH]cn1)C(=O)N[C@@H](CC(N)=O)C(=O)N[C@@H](Cc1ccc(O)cc1)C(N)=O)C(C)C)C(C)C [[D-Trp^12,Nle^8,18, Tyr^34]bPTH(7-34)NH2]
Ki [1]: 182 ± 32 nM | Ki [2]: 13 ± 3 nM

CCCC[C@H](NC(=O)[C@H](CO)NC(=O)[C@H](CO)NC(=O)[C@H](CC(C)C)NC(=O)[C@H](Cc1c[nH]cn1)NC(=O)[C@H](CCCCN)NC(=O)[C@H](Cc1c[nH]c2ccccc12)NC(=O)[C@H](CC(C)C)NC(=O)[C@H](CC(N)=O)NC(=O)[C@H](Cc1c[nH]cn1)NC(=O)[C@H](CCCC)NC(=O)[C@@H](N)Cc1ccccc1)C(=O)N[C@@H](CCC(=O)O)C(=O)N[C@@H](CCCNC(=N)N)C(=O)N[C@H](C(=O)N[C@@H](CCC(=O)O)C(=O)N[C@@H](Cc1c[nH]c2ccccc12)C(=O)N[C@@H](CC(C)C)C(=O)N[C@@H](CCCNC(=N)N)C(=O)N[C@@H](CCCCN)C(=O)N[C@@H](CCCCN)C(=O)N[C@@H](CC(C)C)C(=O)N[C@@H](CCC(N)=O)C(=O)N[C@@H](CC(=O)O)C(=O)N[C@H](C(=O)N[C@@H](Cc1c[nH]cn1)C(=O)N[C@@H](CC(N)=O)C(=O)N[C@@H](Cc1ccc(O)cc1)C(N)=O)C(C)C)C(C)C [[Nle^8,18,Trp^12,Tyr^34]bPTH(7-34)NH2, [L-Trp^12,Nle^8,18,Tyr^34]bPTH(7-34)NH2]
Ki [2]: 51 ± 3 nM
